# The supplement of paper PMC3334620
# In all, about 33,000 sequences were measured (“E-score (-0.5 to 0.5)”: median about -0.0014, highest 2% from about 0.25 on). Some of the results follow.
# Molecular target: T1, Cad1 (UniProt P24813)
# T1 sequence: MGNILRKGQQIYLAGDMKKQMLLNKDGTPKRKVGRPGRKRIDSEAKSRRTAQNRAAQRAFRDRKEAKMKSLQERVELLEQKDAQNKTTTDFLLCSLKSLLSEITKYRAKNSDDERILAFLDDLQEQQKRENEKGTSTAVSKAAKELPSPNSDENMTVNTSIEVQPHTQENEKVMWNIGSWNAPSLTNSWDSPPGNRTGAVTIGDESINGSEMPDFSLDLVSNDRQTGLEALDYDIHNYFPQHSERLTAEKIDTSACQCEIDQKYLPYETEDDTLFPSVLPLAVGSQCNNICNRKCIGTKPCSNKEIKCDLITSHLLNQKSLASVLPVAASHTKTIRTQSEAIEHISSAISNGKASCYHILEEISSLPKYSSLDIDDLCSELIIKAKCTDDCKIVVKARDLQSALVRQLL
# Experiment: PBM E-score (8-mer binding enrichment) (E-score (-0.5 to 0.5)); higher = stronger / more preferred TF binding
# Conditions: protein concentration: 100 nM; construct: GST-full length
# In short: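 Each ungapped eight-base word and its reverse complement, pooled, received an E-score from the Universal PBM Analysis Suite. Underlying scans, normalised with masliner, recorded fluorescent anti-GST bound to GST-tagged yeast transcription factors. These were applied at about 100-200 nM to universal all-10-mer Agilent arrays double-stranded by primer extension.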
row,Sequence,PBM E-score
1,CTACTTGC,0.076
2,CCTGCCAA,-0.0362
3,CTATACAC,-0.138
4,CAATATGC,0.0235
5,AGGTTTTA,-0.00118
6,ATCGCGTC,0.147
7,ACTTGACT,0.0737
8,CGCTCCTA,-0.0238
9,CGCCGCAA,0.179
10,CGATTGCC,0.0433
11,AGTGCACG,0.152
12,AAGTGTAT,0.00198
13,CTCGATAC,0.192
14,AGCAAAAG,-0.0758
15,CCTAGAAA,-0.048
16,TACTTAAA,-0.122
17,CGCAGGAA,-0.107
18,CCTATCAA,0.0736
19,CAGCGGCG,0.22
20,CAGGATGA,0.0644
21,AACGCTGA,0.0602
22,TGTAAAAA,0.0427
23,ACTCAGAG,0.0232
24,TAGACATA,0.0751
25,AGACTCAT,-0.0161

row,Sequence,PBM E-score
1,CTAGTATA,-0.138
2,AGGGTACT,-0.129
3,ATCCAGCG,0.0835
4,CGCACAAA,0.186
5,ACGAACCT,-0.00218
6,ATTCGGAA,0.129
7,GCACCGTA,0.0597
8,GGTGCGGA,0.0558
9,AATGATGT,0.0641
10,GAAGCCTC,-0.247
11,TGAGTCCA,0.00836
12,GCCTTACC,-0.201
13,AACTACAA,0.158
14,AGTTCCGG,0.00132
15,AACAGCTT,0.0251
16,GGAGTAAA,0.248
17,ATCGCGCC,0.143
18,AACCATAT,0.0429
19,CGGAGCGA,0.186
20,GGTTAGGA,-0.256
21,GCCAAGAA,-0.0623
22,TCTCAAAA,-0.0312
23,CAAGTGGC,0.0487
24,CACCTGAC,-0.0154
25,ATAAGCTG,0.116

row,Sequence,PBM E-score
1,ATTCGGGG,0.0825
2,CGGCTCCC,-0.287
3,CGCGCTTC,0.0321
4,CGGGTGTC,0.0393
5,CAGCTTTA,0.00349
6,AGCGCCTA,-0.0068
7,AAGACTCC,-0.174
8,ACTAGCCA,-0.00929
9,CCAGCTAC,-0.225
10,CGATCGCC,0.207
11,GAAGTACA,-0.0347
12,CACGCTAC,-0.108
13,AAAGGAGC,-0.261
14,TAAGCCCA,-0.0135
15,AACGTCCC,-0.156
16,GTGGACAA,0.143
17,CGAGTGTC,0.125
18,AAGGGTCC,-0.166
19,CTATTACA,0.123
20,GGGTCGGA,-0.176
21,ACTGGTGG,0.00404
22,GAACCTCA,-0.131
23,ACACGGAG,-0.104
24,CTCTTTCC,-0.264
25,CCTACTGA,-0.00291

# Looked up one by one from above, 7 records:
row,Sequence,PBM E-score
20,GGGTCGGA,-0.176
4,CGGGTGTC,0.0393
17,CGAGTGTC,0.125
7,GCACCGTA,0.0597
10,CGATCGCC,0.207
25,ATAAGCTG,0.116
1,CTACTTGC,0.076

# (list continues)

row,Sequence,PBM E-score
1,ATGTAACC,-0.0284
2,CAGACAAC,0.0003
3,ACTCGGTG,0.0449
4,TGTCAACA,-0.0139
5,ATAGCCTC,-0.0947
6,AAACTTGG,-0.0357
7,GGTCCCGA,-0.173
8,CGCGCTAC,0.26
9,GCCGGATA,0.123
10,GGGTTTCA,-0.00024
11,GAACCTGA,-0.0206
12,CAGCTTAA,0.0425
13,CATCGCAA,-0.118
14,GGACAACA,0.176
15,ACCTTCGA,0.0781
16,ACACGACT,-0.0339
17,TGACAAAA,0.251
18,TGCGCCCA,-0.0665
19,TCACGGGA,0.145
20,AGATACAT,0.0937
21,AACTGTGA,0.11
22,CCCGTCAG,-0.344
23,GGAAAGTA,-0.0457
24,ACCCCTCA,-0.222
25,GCAAGCGC,-0.0234

# Nothing new here: an excerpt of the list.
row,Sequence,PBM E-score
5,ATAGCCTC,-0.0947
6,AAACTTGG,-0.0357
7,GGTCCCGA,-0.173
8,CGCGCTAC,0.26

# Later entries

row,Sequence,PBM E-score
1,AAATGAGT,0.196
2,ACGAAAGT,0.0253
3,GGACACCC,-0.0975
4,AAGCGAGC,0.0347
5,TGGACCCA,-0.133
6,AACCAATC,0.0878
7,ATACATAG,0.131
8,CATGACAG,0.103
9,ATAAGAGA,0.076
10,GTGAAATA,0.0377
11,AACTTCAA,0.0814
12,ATAAAACC,0.116
13,CTACGCGA,0.0451
14,GAAGACCC,-0.256
15,TAAATGGA,0.0699
16,CCCAAATA,0.027
17,CTAATAGC,0.0948
18,ATGTCAAG,-0.0353
19,AAATAGGC,-0.012
20,AGTATGGG,-0.146
21,GGAGCCTA,-0.145
22,CATAAGAA,0.103
23,GAGGCGCA,-0.0886
24,AAGTGCGC,0.0295
25,GTATAAAC,0.112

row,Sequence,PBM E-score
1,ATGAAAGG,-0.00648
2,GCGAACCA,0.12
3,CCACGCAG,0.0352
4,ACCATACT,0.089
5,CGACTCCC,-0.0265
6,AATTATAA,0.276
7,TACCTTGA,0.038
8,TAAGAAGA,0.164
9,ATACCGAT,0.00216
10,AAAGATGC,-0.0199
11,CCTACGGC,-0.163
12,CACGACTG,-0.128
13,TCGCGGCA,-0.00246
14,CATTAATC,0.153
15,AGGACCAT,-0.217
16,GGAGGTCA,-0.076
17,GATCATAA,0.169
18,AGTCCTAC,-0.0257
19,AAACATAC,-0.123
20,ATGCGATC,0.0312
21,TACGGTCA,-0.0762
22,AGGTTGCG,-0.0319
23,CGAGCTAC,0.111
24,ACCGTTGC,-0.0728
25,AAATTGCC,0.151

row,Sequence,PBM E-score
1,CCGCGACC,-0.19
2,GAGGCTCC,-0.0488
3,TAAAGTTA,0.168
4,AGCTAGAA,-0.196
5,AGCTGAGA,0.0757
6,GGACGACC,-0.152
7,CAGCAACG,0.145
8,AAACGTTC,0.0399
9,ATGGCTCC,-0.0559
10,CCCGGTCG,-0.226
11,TCCCCCCA,-0.404
12,CAAATGAA,0.101
13,AAAACCCC,-0.297
14,TCTACACA,0.0495
15,GCCTTGAA,-0.151
16,AATCCTAG,0.104
17,ATGCGATA,0.0659
18,GCGGTTTA,-0.0547
19,ATGCGAGG,-0.0354
20,CCCGCAGA,-0.02
21,CAAGGGCC,-0.161
22,ATAGTTTG,0.0741
